Chains of the proteins cited; added tags and fusions are not shown.
UniProt P49137, whole entry, looked up: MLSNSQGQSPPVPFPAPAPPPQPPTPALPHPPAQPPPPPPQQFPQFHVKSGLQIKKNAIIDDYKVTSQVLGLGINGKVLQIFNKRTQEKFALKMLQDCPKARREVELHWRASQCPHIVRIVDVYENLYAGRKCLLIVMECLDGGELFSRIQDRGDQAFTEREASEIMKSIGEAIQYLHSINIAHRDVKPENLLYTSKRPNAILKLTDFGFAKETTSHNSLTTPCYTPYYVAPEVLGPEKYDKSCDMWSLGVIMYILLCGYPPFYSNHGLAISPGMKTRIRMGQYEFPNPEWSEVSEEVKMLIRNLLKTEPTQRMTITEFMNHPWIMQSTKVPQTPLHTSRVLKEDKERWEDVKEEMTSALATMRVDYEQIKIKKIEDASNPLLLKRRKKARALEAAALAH

Where a name gives a salt, the structure may show the parent alone. The list shows a part of the results. The calls rarely recur for the same compound in another form.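 Kinases were expressed as nanoluciferase fusions in K562 cells and luminescence was read every 4 h between 2 and 18 h as percent of control, DMSO set to 100% and a positive control to 0%. A time point counts as decreased when the signal drops significantly (2 sigma). The hit call is the authors' own, does not follow from the count of time points alone, and its rule is not shown.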
What follows are molecules tested against MAPKAPK2 (UniProt P49137) (assay: kinase-Nluc reporter destabilization hit call (1 = scored as downregulated) (binary); higher = compound decreases kinase abundance). Conditions: K562; 2-18 h.
`C=CC(=O)N1CCC[C@@H](n2c(=O)n(-c3ccc(Oc4ccccc4)cc3)c3c(N)nccc32)C1` [Tolebrutinib] (10 µM) was tested, and the “kinase-Nluc reporter destabilization hit call” value was inactive: 0.
For `C[C@]1(O)C[C@@](N)(c2ccc(-c3nc4n(c3-c3ccccc3)COc3ccncc3-4)cc2)C1` [TAS-117 (hydrochloride)] (10 µM), the “kinase-Nluc reporter destabilization hit call” value was inactive: 0.
`CCOC(=O)C1=C[C@]2(CC)CCCN3CCc4c(n1c1ccccc41)[C@@H]32` [Vinpocetine] (10 µM) was tested, and the “kinase-Nluc reporter destabilization hit call” value was inactive: 0.
For `CC(C)(C)NS(=O)(=O)c1cncc(-c2cc(F)c3nc(N)nn3c2)c1` (10 µM), the “kinase-Nluc reporter destabilization hit call” value was inactive: 0.
In the case of `CC(C)(C)c1ccc(C(=O)Nc2cn3cc(-n4ccnc4)ccc3n2)cc1` (10 µM), the “kinase-Nluc reporter destabilization hit call” value is reported as inactive: 0.
In the case of `Cc1nc(NC(=O)N2CCC[C@H]2C(N)=O)sc1-c1csc(C(C)(C)C)n1` (10 µM), the “kinase-Nluc reporter destabilization hit call” value is reported as inactive: 0.
With `N#Cc1cn([C@@H]2O[C@H](CO)[C@@H](O)[C@H]2O)c2nc[nH]c(=O)c12` [Jaspamycin] (10 µM) the “kinase-Nluc reporter destabilization hit call” value was inactive: 0.
With `Cc1ccc(-c2csc(Cn3nc(CC4OCCCO4)c4ccccc4c3=O)n2)cc1` (10 µM) the “kinase-Nluc reporter destabilization hit call” value was inactive: 0.
For `CNC(=O)c1c(C)oc2cc(Oc3ncnc4cc(OC)c(OC)cc34)ccc12` [Fruquintinib] (10 µM), the “kinase-Nluc reporter destabilization hit call” value was inactive: 0.
For `O=S(=O)(N=Cc1c(O)ccc2ccccc12)c1cccs1` (10 µM), the “kinase-Nluc reporter destabilization hit call” value was inactive: 0.
With `NC(=O)c1cccc2c(N[C@H](CN3CCC3)c3ccc(Cl)c(C(F)(F)F)c3)ncnc12` (10 µM) the “kinase-Nluc reporter destabilization hit call” value was inactive: 0.
`CN1CCC(c2ccccc2CC(C)(C)Nc2nc(N3CCOCC3)nc(-n3c(S(C)(=O)=O)nc4ccccc43)n2)CC1` (10 µM) was tested, and the “kinase-Nluc reporter destabilization hit call” value was inactive: 0.
`O=c1ccc2cc(O)c(O)cc2o1` [Esculetin] (10 µM) was tested, and the “kinase-Nluc reporter destabilization hit call” value was inactive: 0.
`O=C(Nc1nc2cccc(-c3ccc(CN4CCS(=O)(=O)CC4)cc3)n2n1)C1CC1` [Filgotinib] (2.5 µM) was tested, and the “kinase-Nluc reporter destabilization hit call” value was inactive: 0.
`CC(C)(O)c1cc2nc(-c3cnc(N)nc3)nc(N3CCOCC3)c2s1` (2.5 µM) was tested, and the “kinase-Nluc reporter destabilization hit call” value was inactive: 0.
For `Cn1cc(-c2ccc3ncc(Cc4ccc5ncccc5c4)n3n2)cn1` (10 µM), the “kinase-Nluc reporter destabilization hit call” value was inactive: 0.
In the case of `CC(=O)c1cc(O)ccc1O` [2,5-Dihydroxyacetophenone] (10 µM), the “kinase-Nluc reporter destabilization hit call” value is reported as inactive: 0.
For `COc1ccc(COc2cc3oc(=O)c4cc(C(C)O)ccc4c3cc2OC)cc1` (stereo not drawn) [Palomid 529] (2.5 µM), the “kinase-Nluc reporter destabilization hit call” value was inactive: 0.
In the case of `O=C(CC(c1ccccc1)C(C(=O)O)C(=O)O)c1ccc(C(F)(F)F)cc1` (stereo not drawn) (10 µM), the “kinase-Nluc reporter destabilization hit call” value is reported as inactive: 0.
With `CC(C)[C@H](CO)Nc1nc(Nc2ccc(C(=O)O)c(Cl)c2)c2ncn(C(C)C)c2n1` [Purvalanol B] (10 µM) the “kinase-Nluc reporter destabilization hit call” value was inactive: 0.
In the case of `COc1cc2nccc(Oc3ccc(NC(=O)Nc4ccc(F)cc4F)c(F)c3)c2cc1OC` (10 µM), the “kinase-Nluc reporter destabilization hit call” value is reported as inactive: 0.
For `N#C/C(=C\c1ccc[nH]1)c1ccc(Cl)c(Cl)c1` (2.5 µM), the “kinase-Nluc reporter destabilization hit call” value was inactive: 0.
For `O=c1cc(-c2ccc(O)cc2)oc2cc(O)c(O)c(O)c12` [Scutellarein] (10 µM), the “kinase-Nluc reporter destabilization hit call” value was inactive: 0.
`CC(C)n1nc(C#Cc2ccccc2)c2c(N)ncnc21` (10 µM) was tested, and the “kinase-Nluc reporter destabilization hit call” value was inactive: 0.
With `O=C(N=c1sccn1Cc1ccccc1)c1c[nH]c2ncccc12` (10 µM) the “kinase-Nluc reporter destabilization hit call” value was inactive: 0.
In the case of `CC(C)=C/C=C1\O[C@@H]2CC(C)=CC(=O)[C@@H]2[C@]1(C)O` [Bisabolangelone] (10 µM), the “kinase-Nluc reporter destabilization hit call” value is reported as inactive: 0.
For `COc1ccc(C2CC(c3ccc(Cl)cc3)=NN2c2nc(-c3ccncc3)cs2)cc1` (stereo not drawn) [mTOR inhibitor-8] (10 µM), the “kinase-Nluc reporter destabilization hit call” value was inactive: 0.
`Cc1cc(F)c(Nc2ncnc3cc(OCc4ccccc4)ccc23)cc1O` (10 µM) was tested, and the “kinase-Nluc reporter destabilization hit call” value was inactive: 0.
For `CNCCOc1ccccc1C(C)(C)Nc1nccn(-c2cc(C(=O)NC3CC3)ccc2C)c1=O` [p38α inhibitor 2] (10 µM), the “kinase-Nluc reporter destabilization hit call” value was inactive: 0.
`CCn1c(-c2nonc2N)nc2c(C#CCO)ncc(OCCCN)c21` [AKT Kinase Inhibitor] (10 µM) was tested, and the “kinase-Nluc reporter destabilization hit call” value was inactive: 0.
In the case of `NC(=O)c1nc(-c2c(F)cccc2Cl)oc1Nc1ccc(C(=O)N2CCOCC2)cc1` (10 µM), the “kinase-Nluc reporter destabilization hit call” value is reported as inactive: 0.
With `O=C(NCc1cccc(O)c1)c1cc2cc(F)ccc2[nH]1` (10 µM) the “kinase-Nluc reporter destabilization hit call” value was inactive: 0.
With `Cc1nc(Nc2ncc(C(=O)Nc3c(C)cccc3Cl)s2)cc(N2CCN(C(=O)CCCCCCC(=O)N[C@H](C(=O)N3C[C@H](O)C[C@H]3C(=O)NCc3ccc(-c4scnc4C)cc3)C(C)(C)C)CC2)n1` (2.5 µM) the “kinase-Nluc reporter destabilization hit call” value was inactive: 0.
In the case of `Cc1cccc(-c2[nH]c(C(C)(C)C)nc2-c2ccc3c(c2)OCO3)n1` (2.5 µM), the “kinase-Nluc reporter destabilization hit call” value is reported as inactive: 0.
In the case of `Cc1cccc(Cn2nc(C)c3c(NC(=O)c4csc5c(N)ncnc45)cccc32)n1` (10 µM), the “kinase-Nluc reporter destabilization hit call” value is reported as inactive: 0.
With `CC[C@@H]1CN(C(=O)NCC(F)(F)F)C[C@@H]1c1cnc2cnc3[nH]ccc3n12` [Upadacitinib] (10 µM) the “kinase-Nluc reporter destabilization hit call” value was inactive: 0.
For `CNS(=O)(=O)C[C@H]1CC[C@H](N(C)c2[nH]cnc3nccc2-3)CC1` [Oclacitinib (maleate)] (10 µM), the “kinase-Nluc reporter destabilization hit call” value was inactive: 0.
`COc1cc(-c2cnc(N)c(-c3ccc(NC(=O)c4cn(CC5CCOCC5)cc(-c5ccc(C)cn5)c4=O)cc3F)c2)ccc1OC[C@H]1COCCO1` [DS-1205b (free base)] (10 µM) was tested, and the “kinase-Nluc reporter destabilization hit call” value was inactive: 0.

Reference: the supplement of paper PMC12823440, “Inhibitors supercharge kinase turnover through native proteolytic circuits” (Nature, 2025)
